PubChem BioAssay AID686938 – Drosophila RNAi Screening Center, 2013
The screen tested about 23,000 reagents; this is an unselected part of those that have a named target and a result. Of all reagents, 75 (0.33%) got an active call. 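Raw plate signals without normalisation; calls rest on plate z-scores that were not deposited; ratio present for only 364 wells.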 Entries without a mark were called inactive. Reagents against one gene are numbered here. A plus sign joins genes that one reagent is predicted to hit. Reagent sequences are not shown. Not given: the dose of the treatment.

Assay: 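Fly genes required for calcium entry once internal stores are emptied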 (primary screen)
Cell system: Drosophila S2R+ cells
Knock-down reagent: long dsRNA against Drosophila genes, about 0.25 µg dsRNA per well, roughly 10,000 cells
Time to read-out: 5 days of knock-down before the calcium assay
Treatment: thapsigargin (SERCA pump blocker) to empty calcium stores; entry signal taken 4 min after adding it
Measurement: 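Per-well fluo-4 fluorescence in two replicates, unnormalised, measured in resting cells and 4 min after store depletion by the SERCA blocker thapsigargin; ratio of the two present in few wells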
Reading the numbers: calcium entry signal: higher = stronger calcium signal after store depletion; entry to resting ratio: higher = more calcium entry relative to resting level; resting calcium signal: higher = higher resting calcium signal
Hit rule: 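Hit if the duplicate-averaged plate z-score for entry over resting signal is under −3; wells with weak total dye signal (Fmax z < −2) or more than 5 off-targets removed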
Meaning of the calls: active = strongly reduced calcium entry; inactive = no strong reduction

gene	reagent no.	calcium entry signal, replicate 1 (fluorescence units)	calcium entry signal, replicate 2 (fluorescence units)	entry to resting ratio	resting calcium signal, replicate 1 (fluorescence units)	resting calcium signal, replicate 2 (fluorescence units)
vret (vreteno)	1	4.86e7	3.96e7		2.19e7	1.73e7
CG17196	1	3.30e7	6.47e7		1.76e7	2.47e7
CG11593	1	4.12e7	4.46e7		2.12e7	2.17e7
Qsox1 (Quiescin sulfhydryl oxidase 1)	1	2.20e7	2.19e7		1.11e7	1.19e7
sxe2 (sex-specific enzyme 2)	1	2.82e7	2.45e7		1.37e7	1.20e7
lncRNA:iab4 (long non-coding RNA:iab4)	1	3.83e7	7.19e7		1.86e7	2.90e7
EndoA (Endophilin A)	1	1.93e7	2.20e7		9.78e6	8.90e6
CG11170	1	3.18e7			1.64e7	
Rsph1 (Radial spoke head protein 1)	1	4.65e7	3.61e7		2.16e7	1.80e7
CG7655	1	5.09e7	3.90e7		2.48e7	1.72e7
CG13738	1	2.77e7	3.50e7		1.61e7	1.77e7
Zmynd8 (Zinc finger MYND-type containing 8)	1	2.58e7	3.12e7		1.28e7	1.56e7
Gnmt (Glycine N-methyltransferase)	1	4.19e7	3.85e7		2.16e7	2.03e7
brk (brinker)	1	3.45e7	3.88e7		1.72e7	1.99e7
brk (brinker)	2	3.02e7	3.41e7		1.58e7	1.70e7
CG4168	1	2.90e7	3.24e7		1.64e7	1.65e7
CG4168	2	2.78e7	2.96e7		1.54e7	1.55e7
CG4168	3	4.42e7			2.09e7	
CG4168	4	2.38e7	2.69e7		1.28e7	1.22e7
CG4168	5	4.35e7	3.40e7		2.02e7	1.61e7
Cyp6a23 (Cytochrome P450 6a23)	1	3.05e7	3.57e7		1.59e7	1.76e7
side (sidestep)	1	3.38e7	4.85e7		1.81e7	2.52e7
side (sidestep)	2	3.66e7	5.44e7		1.85e7	2.31e7
side (sidestep)	3	3.91e7	5.52e7		1.86e7	2.30e7
side (sidestep)	4	3.58e7	5.50e7		1.69e7	2.16e7
side (sidestep)	5	3.24e7	5.59e7		1.67e7	2.42e7
mus304 (mutagen-sensitive 304)	1	3.61e7	6.28e7		1.85e7	2.48e7
pasi2 (pasiflora 2)	1	2.05e7	2.12e7		1.08e7	1.23e7
CG17681	1	4.91e7	3.63e7		2.10e7	1.72e7
msopa (male-specific opa containing gene)	1	3.08e7	4.77e7		1.63e7	2.47e7
msopa (male-specific opa containing gene)	2	3.48e7	3.77e7		1.79e7	1.69e7
CG13337	1	3.48e7	4.97e7		1.87e7	2.15e7
CG1896	1	2.71e7	3.33e7		1.24e7	1.55e7
Hsc70-5 (Heat shock protein 70 cognate 5)	1	2.65e7	4.51e7		1.39e7	2.19e7
CG13796 + CG31904	1	3.03e7	4.42e7		1.50e7	2.10e7
Lgr1 (Leucine-rich repeat-containing G protein-coupled receptor 1)	1	2.40e7	3.03e7		2.81e7	1.30e7
CG42402	1	4.97e7	5.19e7		2.38e7	2.04e7
CG14417	1	3.30e7	3.00e7	2	1.62e7	1.31e7
CG17027	1	3.39e7	4.49e7		1.67e7	3.08e7
Menl-2 + Menl-1	1	4.90e7	4.74e7		1.98e7	2.09e7
Menl-2 + Menl-1	2	4.59e7	5.34e7		2.01e7	2.29e7

4 entries already listed, arranged by “calcium entry signal, replicate 1 (fluorescence units)”, low to high:
gene	reagent no.	calcium entry signal, replicate 1 (fluorescence units)	calcium entry signal, replicate 2 (fluorescence units)	entry to resting ratio	resting calcium signal, replicate 1 (fluorescence units)	resting calcium signal, replicate 2 (fluorescence units)
EndoA (Endophilin A)	1	1.93e7	2.20e7		9.78e6	8.90e6
CG11170	1	3.18e7			1.64e7	
Rsph1 (Radial spoke head protein 1)	1	4.65e7	3.61e7		2.16e7	1.80e7
CG7655	1	5.09e7	3.90e7		2.48e7	1.72e7
